# Reference: PubChem BioAssay AID1508600 (Functional Genomics Laboratory (NCATS/FGL), 2020)
# Hit rate of the full screen: of about 53,000 sequences, about 3,700 (7%) were called active.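 Rule for the calls: active = gene knockdowns whose robust z-score for IL-1 alpha signal is at least 2 or at most -2, so actives lie on both sides; inactive = the rest.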 The list shows a part of the results.
# Assay: Components of the Cytosolic LPS Sensing Pathway: Gene Identification via Genome-wide siRNA Screen;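 note: robust z of the log signal after scaling to non-targeting control siRNA wells of the plate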
# Details: RAW264.7 macrophages, IL-1a HTRF, actives lie on both sides, screened at 100 nM (by protocol), cells primed 5 h with Pam3CSK4 first
# Outline: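 Three distinct siRNAs per gene were tested singly at 100 nM in RAW264.7 macrophages. Following Pam3CSK4 priming and 24 hour LipidA transfection, IL-1a secretion was read by HTRF.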
row,Sequence,z-score
1,GCUCUAUUUUUUCAUCUCCTT against Olfr1415,inactive: -1.03
2,CCAGAGUUUUCGAGGCCAATT against Olfr1349,inactive: 0.127
3,GGCCUUUAGCACCUACAGCTT against Olfr952,inactive: -0.198
4,CGGUAUAUAGAUCACUUCUTT against Olfr56,inactive: 0.276
5,GCAUCGAUGGACUCUUUAUTT against Fbxo40,inactive: -1.97
6,CGCAUGUUCAUAGGACUGCTT against Olfr1420,inactive: 0.453
7,GCUGAAAAUUCCUUCCCGATT against Aff4,inactive: -1.54
8,GGCUAAAGACCAGUAUUUGTT against Cdh7,active: 2.47
9,GGAAUCAAAGGAACAGAGATT against Dscaml1,inactive: -0.0266
10,GGAUGAGCUAAUAGCUAAGTT against Mettl14,inactive: 1.14
11,GCUAAAUCAGCGUAUGAUGTT against Ces4a,inactive: 0.512
12,GGAUGACUGGAACUUCCUCTT against Kcnk1,inactive: -1.26
13,CCUCAUCGAAUUCGAUACCTT against Arrb2,inactive: -0.181
14,GCCAUCGUGAGAAGACUUCTT against Nt5c3,inactive: -0.227
15,CUACCUACUCCAUGUGGUGTT against Gpihbp1,inactive: -0.55
16,GGCUCUAUAUCUAUACUGATT against Srst,inactive: -1
17,GGAUAUCCUUACAAGGACCTT against Tmco3,inactive: -0.646
18,GCCCAUGACAUUCUCCAUUTT against Cdh17,inactive: 0.824
19,GGACCUAGAGGACUAUAAATT against P3h2,inactive: 0.894
20,GGAACAGCUCAACACAAGATT against Adam11,inactive: 1.81
21,GGCUUUGAGUAUCAAAAUATT against Pfpl,inactive: -0.58
22,GGACCCUCCAGGUUACAUUTT against Ptpn18,inactive: 0.529
23,CCAAUACUACAUAAUGUCUTT against Abcc12,inactive: -0.354

row,Sequence,z-score
1,CGUGUUCCGGUCGAGUACUTT against Wdr54,inactive: -0.314
2,GGCGGUCUUUAAGAUGCUCTT against Ubl7,active: 2.12
3,GGAGGGUACUGUUAUUUUUTT against Defb9,inactive: 1
4,GGCCAAGAUAGAUAAUAACTT against Zcchc7,inactive: -1.08
5,CCAACUGGUAAUCUUCACATT against Olfr3,inactive: -0.717
6,GAGGCUGUCUGCUUCAUCCTT against Mrps12,inactive: 0.701
7,GCUUAUGUUGUUGUGCAUUTT against Zfyve21,inactive: 0.362
8,CCCGAACCUUAGUAAAUGUTT against Psmd8,inactive: 0.308
9,GCAGACUUUGUUUGACAACTT against Hip1,inactive: 1.43
10,GCGGACACAUCGAGUUUUGTT against Epor,inactive: 1.57
11,GCAGCGUAAACAUUGUAACTT against Pkib,inactive: -0.0994
12,CCUGCUCAGAUCCACAGAATT against Usp17lc,inactive: -1.98
13,GGUACCAUUCAGCAAUAAGTT against Muc19,inactive: -0.202
14,GGUCAACCACAGCUACUGCTT against Pias4,inactive: 0.913
15,GGAUAUCGGGAUGAAAUUGTT against Meig1,inactive: -0.482
16,GGACCUCAUUGUUUAGUCATT against Cmya5,inactive: -0.271
17,GAUGUGUGCUCAUGGUUUUTT against Olfr622,inactive: -0.711
18,GGUCUCCAUGAGUUUGAUUTT against Pik3cd,inactive: -0.0808
19,GCAAUCAUUAAGCAGAUCATT against Prkce,inactive: -1.35
20,GGGCUUAAGGGUUUCUGUUTT against H3c8,inactive: 0.864
21,GAUCUUACUCAGCAGACCUTT against Ifna2,inactive: 0.0264
22,GGCAACAGUUGGCUAUCUUTT against Entpd7,inactive: -0.0483
23,GGAGCAUGAGGAUUACUGUTT against Trafd1,inactive: 0.731

row,Sequence,z-score
1,GCAGUUUGUUCAAAGUAGCTT against Pcdh17,inactive: -0.339
2,GGACUUCUCCAAUGACCUGTT against Creb3l1,inactive: 0.638
3,CCAGUGUGAAAUGAUCCUUTT against Hddc2,inactive: -0.361
4,GCAGGGAGACUCACAUUAATT against Trpa1,inactive: 0.931
5,GGUGAAGAUUGAGAAGGAGTT against Aifm3,active: -2.05
6,CGACAUCAAAUACGGAUCUTT against Sdf2l1,inactive: 0.919
7,CCAUCCGUAACAUCGACUGTT against Mboat7,inactive: -0.293
8,GCAGUAGAUCCUGAUUUUGTT against Cdh12,inactive: -0.382
9,GGAAAGGGACCAAUUCAGATT against Fv1,inactive: -0.27
10,CCCUGUACACACCUAAAAATT against Nus1,inactive: -0.688
11,GGUUUUAGUAUGUAGUGUUTT against Pxt1,inactive: -0.164
12,CCUAUGAAGCAAUUUGAUCTT against Lnx2,inactive: 1.04
13,GCAUGAGACUAUGCACCUATT against Snca,inactive: -0.448
14,GGAUCAUCACUACUACAAUTT against 4932415M13Rik,active: 2.37
15,CCAGCUUAAUGAGUUCAUGTT against Abca7,inactive: 1.94
16,GGAAACUGUAAGUGUCAAUTT against Pef1,inactive: -1.26
17,GGAACCUUUUAUUCAAGAATT against Cmtm3,inactive: 0.222
18,GGAAGAUGGGAAGAAAUUCTT against Eif3g,inactive: 0.108
19,GGCAGUUCAAAAGACCACATT against Zcchc7,active: 2.38
20,CCUUUUUGGUACGAGACGCTT against Pik3r1,inactive: -1.2
21,GCACUUUUAAAUUAAGGUCTT against Casp12,inactive: 0.0894
22,CCGAAUUCGUGUGAAACUGTT against Ablim2,inactive: -0.433
